{"source": "patent US20250136703A1", "biological_target": "T1, IL13Ra2 on A375 cells (ATCC; Cat #: CRL-1619) (UniProt Q14627)", "T1 sequence (looked up)": "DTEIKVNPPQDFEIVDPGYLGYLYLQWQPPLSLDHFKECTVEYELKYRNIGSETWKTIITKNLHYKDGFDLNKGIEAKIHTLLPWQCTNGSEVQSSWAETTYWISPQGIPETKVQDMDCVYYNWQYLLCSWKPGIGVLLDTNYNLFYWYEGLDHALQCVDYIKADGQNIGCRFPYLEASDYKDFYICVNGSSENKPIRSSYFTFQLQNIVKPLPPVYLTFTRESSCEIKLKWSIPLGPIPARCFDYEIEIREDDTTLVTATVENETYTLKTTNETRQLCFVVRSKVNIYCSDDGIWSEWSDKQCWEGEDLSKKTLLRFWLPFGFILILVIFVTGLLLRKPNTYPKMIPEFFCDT", "experiment": "flow cytometry on A375 cells", "note": "Results are given in words; binding and its absence hold for the method and conditions named. Some entries that bind do so weakly or less than the wild type.", "data": [{"binder": "L3A6-H1L1 (humanized mAb constructed with L3A6-H1 heavy chain and L3A6-L1 light chain) (antibody, V domains shown) VH: QVTLRESGPALVKPTQTLTLTCTASGYTFTNYWMNWVRQPPGKALEWIGRIDPSDTETHYNQEVKDRATLSVDKSKNQAVLTMTNMDPVDTATYYCARGYGTYYGMDYWGQGSLVTVSS VL: DIVLTQSPDSLSVSLGERATINCRASESVDNYGISFMNWFQQKPGQPPKLLIYAASNQGSGVPDRFSGSGSGTDFTLTISSLQAEDVAVYFCQQSKEVPWTFGGGTKVEIK", "values": [{"measurement": "binding", "value": "binds"}]}]}
